From patent publication US11090355B2 (BIOINCEPT, LLC, priority 2015, dated 2021)
Where a sequence shows no end group, the ends are not given.

Test: peptide made by a vendor (Fmoc solid-phase peptide synthesis)
Conditions: whole synthesis

HSLGKWLGHPDKF
final HPLC purity: >95%
